In PMC9010640:
These are yes or no findings as the source states them, for the method shown. In cells and extracts the contact can be indirect. Some results given as binding are weak or reduced against the parent protein; the word gives no strength.

Amino acid sequences for entries named in this document (tags omitted).
UniProt P31596: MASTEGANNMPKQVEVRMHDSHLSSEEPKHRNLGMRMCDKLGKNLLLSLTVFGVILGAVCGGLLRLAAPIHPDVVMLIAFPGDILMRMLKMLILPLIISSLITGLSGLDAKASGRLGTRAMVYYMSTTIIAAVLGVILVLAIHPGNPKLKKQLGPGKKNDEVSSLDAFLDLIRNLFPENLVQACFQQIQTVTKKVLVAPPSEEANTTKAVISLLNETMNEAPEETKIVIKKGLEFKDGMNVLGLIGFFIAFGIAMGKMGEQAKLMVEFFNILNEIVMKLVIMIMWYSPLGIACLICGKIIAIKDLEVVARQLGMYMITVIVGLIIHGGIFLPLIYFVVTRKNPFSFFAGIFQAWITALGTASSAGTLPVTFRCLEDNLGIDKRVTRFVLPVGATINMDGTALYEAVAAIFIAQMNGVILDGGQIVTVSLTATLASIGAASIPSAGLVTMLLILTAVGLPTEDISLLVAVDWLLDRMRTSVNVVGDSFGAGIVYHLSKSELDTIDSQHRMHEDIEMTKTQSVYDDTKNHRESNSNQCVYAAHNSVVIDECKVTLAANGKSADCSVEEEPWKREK
UniProt Q4G017: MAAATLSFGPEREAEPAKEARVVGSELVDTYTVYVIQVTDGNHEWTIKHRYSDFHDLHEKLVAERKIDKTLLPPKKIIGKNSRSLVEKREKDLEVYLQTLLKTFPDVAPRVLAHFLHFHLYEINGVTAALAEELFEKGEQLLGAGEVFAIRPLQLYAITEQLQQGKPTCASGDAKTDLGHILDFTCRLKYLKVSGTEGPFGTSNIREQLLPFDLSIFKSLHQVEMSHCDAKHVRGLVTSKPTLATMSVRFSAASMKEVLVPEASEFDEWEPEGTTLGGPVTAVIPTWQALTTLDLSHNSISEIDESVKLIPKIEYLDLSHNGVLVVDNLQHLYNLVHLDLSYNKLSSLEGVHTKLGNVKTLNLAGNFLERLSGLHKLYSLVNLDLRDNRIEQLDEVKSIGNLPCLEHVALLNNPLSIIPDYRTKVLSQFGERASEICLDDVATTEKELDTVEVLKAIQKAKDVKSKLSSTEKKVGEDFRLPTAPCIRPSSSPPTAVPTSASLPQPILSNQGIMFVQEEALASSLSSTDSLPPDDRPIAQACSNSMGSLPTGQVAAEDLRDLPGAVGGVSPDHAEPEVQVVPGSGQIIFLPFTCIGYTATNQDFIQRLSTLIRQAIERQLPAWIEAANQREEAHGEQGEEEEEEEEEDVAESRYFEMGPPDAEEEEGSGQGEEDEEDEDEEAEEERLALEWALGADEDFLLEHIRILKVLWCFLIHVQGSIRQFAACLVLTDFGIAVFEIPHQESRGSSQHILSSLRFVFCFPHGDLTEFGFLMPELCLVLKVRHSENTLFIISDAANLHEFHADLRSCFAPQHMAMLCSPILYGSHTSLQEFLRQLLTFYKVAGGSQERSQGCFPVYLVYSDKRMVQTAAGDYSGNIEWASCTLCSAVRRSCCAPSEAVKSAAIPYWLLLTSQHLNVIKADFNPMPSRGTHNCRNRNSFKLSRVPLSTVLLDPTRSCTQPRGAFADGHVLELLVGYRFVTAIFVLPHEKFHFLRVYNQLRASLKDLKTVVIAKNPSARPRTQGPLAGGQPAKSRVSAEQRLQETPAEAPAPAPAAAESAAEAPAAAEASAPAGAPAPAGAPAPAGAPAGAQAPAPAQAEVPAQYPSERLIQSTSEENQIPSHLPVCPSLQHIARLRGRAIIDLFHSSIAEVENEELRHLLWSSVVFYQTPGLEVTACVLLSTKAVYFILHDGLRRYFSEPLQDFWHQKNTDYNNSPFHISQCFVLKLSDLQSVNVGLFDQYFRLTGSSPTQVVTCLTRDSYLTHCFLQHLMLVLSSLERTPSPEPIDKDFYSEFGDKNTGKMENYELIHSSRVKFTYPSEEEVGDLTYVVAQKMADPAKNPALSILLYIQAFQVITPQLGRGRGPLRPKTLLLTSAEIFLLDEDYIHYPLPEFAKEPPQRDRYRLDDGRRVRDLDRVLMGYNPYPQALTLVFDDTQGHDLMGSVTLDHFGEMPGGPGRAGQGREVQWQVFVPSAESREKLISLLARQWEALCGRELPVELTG

Molecular target: GLT-1, endogenous in DIV14 hippocampal culture (rat (endogenous in hippocampal culture)) (UniProt P31596)
Test: proximity ligation; In situ PLA in fixed DIV14 hippocampal cultures with anti-GLT and anti-Nischarin primary antibodies; single primary antibody as control; untreated or glutamate (100 uM, 1 h), which increased the puncta

Question: “Nischarin, endogenous in DIV14 hippocampal culture (from UniProt Q4G017 1-1502)” was tested. Which binding did it give?
Answer: binds
